From patent US20170081419A1 (AbbVie / Abbott, published 2017) come the findings set out here.

These are yes or no findings as the source states them, for the method shown. A result given as binding can be weak or reduced; the word gives no strength.

For test [1], the target named is squirrel monkey CD46 homolog (squirrel monkey (Saimiri sciureus)). As to the kind of experiment: ForteBIO, concentration series of recombinant monomeric CD46 homolog. For orientation: In BLI a coated tip is dipped into the sample, and binding shifts an interference pattern.
Test [2] addresses cynomolgus (macaque) CD46 homolog (macaque (cynomolgus)). Described as above.

B1: N54.4 (antibody, IgG2a, V domains shown)
VH: QVQLQQPGAELVKPGASVKLSCQTSGYTFTSYWMHWVKQRPGQGLEWIGEINPSNGRTNYNEKFKTKATLTVDKSSTTAYIQLNSLTSEDSAVYYCARLRDYGGWGQGTLVTVSA
VL: NIVMTQSPKSVSMSVGERVTLSCKASENVNTFVSWFQQKPDQSPKLLIYGASNRYPGVPDRFTGSGSATEFTLTISSVQAEDLADYHCGQSYSYPYTFGGGTKLEIKR
Turning to B1, in test [1], the binding entry is “binds”.

B2: N35.6 (antibody, IgG2a, V domains shown)
VH: EVQLVESGGGLVKPGGSLKLSCAASGFTFSDYYMYWVRQTPEKRLEWVATISDGGTYIYYPDSVKGRFTISRDNAKNNLYLQMSSLKSEDTAMYYCVRDIDYDTSYPWFAYWGQGTLVTVSA
VL: RCDIQMTQTTSSLSASLGDRVTISCSASQGISNYLNWYQQKPDGTVKLLIYYTSSLHSGVPSRFSGSGSGTDYSLTINNLEPEDIATYYCQQYSKLPWTFGGGTKLEIKR
On to B2, for which the binding entry in test [1] is “no binding”.

B3: N146.2 (antibody, IgG1, V domains shown)
VH: EVQLVESGGGLVKPGGSLKLSCAASGFTFSSFGMSWVRQTPEKRLEWVAAINSNGGNTYYSDTVKGRFTISRDNAKNTLYLQMSSLRSADTALYYCARVVHFDVWGAGTTVTVSS
VL: AIQMTQTTSSLSASLGDRVTISCSASQDISNYLNWYQQKPDGTVKLLIYYTSSLHSGVPSRFSGSGSGTDYSLTISNVEPEDVATYYCQQYSELPYTFGGGTKLEINR
notes: Kept apart from m10, which is the mouse/human chimeric form of the same clone; also called SC1.N146 (murine hybridoma clone)
As for B3, the binding entry in test [1] is reported as “no binding”.

B4: N95.1 (antibody, IgG2a, V domains shown)
VH: QVQLQQSGAELARPGASVKLSCKASDYTFTSYGISWVKQRTGQGLEWIGEIFPRSGNTYYNEKFKGKATLTADKSSSTAYMELRSLTSEDSAVYFCARGLGGAMDYWGQGTSVIVSS
VL: DIVMTQAAPSVPVTPGESVSISCRSSKSLLHSNGNTYLYWFLQRPGQSPQLLIYRMSNLASGVPDRFSGSGSGTTFTLRISGVEAEDVGVYYCMQHLEYPCTFGGGTKLEIKR
notes: .1 is the subclone suffix; also called SC1.N95
Regarding B4, the binding result in test [2] was “binds”; in test [1], “no binding”.

B5: N50.3 (antibody, IgG2b, V domains shown)
VH: EVLLHQSGPELVKPGASVKIPCKASGYTFTDYNMDWVKQSHGKSLEWIGDINPNNGGTFYNQKFKGKATLTVHKSSSTAFMELRSLTSEDTAVYYCTRSKYDNYPWFAYWGQGTLVTVSA
VL: DIQMTQITSSLSASLGDRVTISCSASQGISNYLNWYQQKPDGTVKLLIYYTSSLHSGVPSRFRGSGSGTNYSLTISNLEPEDIATYYCQQYIKLPWTFGGGTKLEIKR
notes: .3 is the subclone suffix; also called SC1.N50
Turning to B5, the binding entry in test [2] is “binds”; in test [1], “no binding”.

B6: N53.5 (antibody, IgG1, V domains shown)
VH: QVQLQQSGPELVKPGASVKLSCKASGYTFTNYDINWVKQRPGQGLEWIGWIYPRDGSFKYNEKFKGKATLTVDTSSSTAYMDLHSLTSEDSAVFFCAVSEDGYPWFPYWGQGTLVTVSA
VL: GIQMTQTTSSLSASLGDRVTISCSASQGISNYLNWYQQKPDGTVKLLIYYTSSLHSGVPSRFSGSGSGTDYSLTISNLEPEDIATYYCQQYIKLPFTFGSGTKLEIKR
As for B6, the binding result in test [1] is “binds”.

B7: N135.1 (antibody, IgG2b, V domains shown)
VH: DVQLVESGGGLVQPGGSRKLSCAASGFTFSSFGMHWVRQAPEKGLEWVAYISSATSAIYYADTVKGRFTISRDNPTNTLFLQMTSLRSEDTAMYYCARKGNNYFDYWGQGTTLTVSS
VL: QIVLTQSPAIMSASPGEKVTLSCSATSSVTYMHWLQQKPGSSPKPWIYRTSNLASGVPARFRGSGSGTSYSLTISSMEAEDAATYYCQQYHSYPPTFGGGTKLEIKR
notes: .1 is the subclone suffix; also called SC1.N135
Turning to B7, in test [2], the binding result is reported as “binds”.
